{"source": "PubChem BioAssay AID250", "about": "(DTP/NCI, 2004)", "key": {"[1]": {"system": "BDF1 mice, L1210 leukemia sc, survival T/C", "assay": "NCI In Vivo Anticancer Drug Screen. Data for tumor model L1210 Leukemia (subcutaneous) in B6D2F1 (BDF1) mice", "details": "T/C endpoint: median survival time, schedule: Q01DX Z (sc), higher T/C = longer survival", "method": "(§1) The antitumor activity of compounds was measured in mice bearing transplantable tumors. Survival or tumor size were measured and the results are expressed as the measurement made in the treated group (T) divided by the measurement made in the vehicle treated control group (C). The tumor model used in this assay is L1210 Leukemia (subcutaneous) in B6D2F1 (BDF1) mice"}, "[2]": {"system": "BDF1 mice, L1210 leukemia sc", "assay": "NCI In Vivo Anticancer Drug Screen. Data for tumor model L1210 Leukemia (subcutaneous) in B6D2F1 (BDF1) mice", "details": "T/C endpoint: median survival time, schedule: Q01DX Z (sc), higher T/C = longer survival", "method": "as §1"}, "[3]": {"details": "dose: 5.0 mg/kg/injection, vehicle: saline"}, "[4]": {"details": "dose: 1.8 mg/kg/injection, vehicle: saline"}, "[5]": {"details": "dose: 3.0 mg/kg/injection, vehicle: saline"}, "[6]": {"details": "dose: 8.4 mg/kg/injection, vehicle: saline"}}, "note": "The list does not hold the whole screen: its compounds were picked by chemical class. Other doses and runs of a compound may be missing. T/C gives the treated animals as a percentage of the vehicle group. Where survival is the endpoint, this PubChem deposit counts one and a half times the control or more as active, and values a quarter to a half above the control carry no call in these data; other NCI protocols may use other cut-offs. Some entries show no survivor count and are marked so; the dose need not have been tolerated. Schedule codes are those of the source, taken here to give the interval after Q, in days (D) or hours (H), and the number of doses after X. Some schedule codes hold Z or #, which are not explained here. Signs of the kind (2×) count equal records among those shown. Some doses were run more than once; their values stand side by side, smallest first.", "data": [{"smiles": "ClCCNCCCNCCCl", "values": [{"measurement": "T/C", "setting": "[1]; [3]", "value": "94 % of control [survivor count not shown]"}, {"measurement": "T/C", "setting": "[1]; dose: 10.0 mg/kg/injection, vehicle: saline", "value": "100 [survivor count not shown] and 112 % of control [survivor count not shown]"}, {"measurement": "T/C", "setting": "[1]; dose: 16.8 mg/kg/injection, vehicle: saline", "value": "112 % of control [survivor count not shown]"}, {"measurement": "T/C", "setting": "[1]; dose: 20.0 mg/kg/injection, vehicle: saline", "value": "100 % of control [survivor count not shown]"}, {"measurement": "T/C", "setting": "[1]; dose: 28.0 mg/kg/injection, vehicle: saline", "value": "150 % of control [survivor count not shown]"}, {"measurement": "T/C", "setting": "[1]; dose: 40.0 mg/kg/injection, vehicle: saline", "value": "100 % of control [survivor count not shown]"}, {"measurement": "T/C", "setting": "[1]; dose: 46.7 mg/kg/injection, vehicle: saline", "value": "168 % of control [survivor count not shown]"}, {"measurement": "T/C", "setting": "[1]; dose: 77.8 mg/kg/injection, vehicle: saline", "value": "156 % of control [survivor count not shown]"}, {"measurement": "T/C", "setting": "[1]; dose: 80.0 mg/kg/injection, vehicle: saline", "value": "150 % of control [survivor count not shown]"}, {"measurement": "T/C", "setting": "[2]; dose: 130.0 mg/kg/injection, vehicle: saline", "value": "125 % of control [survivor count not shown]"}]}, {"smiles": "COCc1c(CN(CCCl)CCCl)cnc(C)c1O", "values": [{"measurement": "T/C", "setting": "[1]; [4]", "value": "90 % of control [survivor count not shown]"}, {"measurement": "T/C", "setting": "[1]; [5]", "value": "90 % of control [survivor count not shown]"}, {"measurement": "T/C", "setting": "[1]; [3]", "value": "95 % of control [survivor count not shown]"}, {"measurement": "T/C", "setting": "[1]; [6]", "value": "100 % of control [survivor count not shown]"}, {"measurement": "T/C", "setting": "[1]; dose: 14.0 mg/kg/injection, vehicle: saline", "value": "109 % of control [survivor count not shown]"}]}, {"smiles": "ClCCN(CCCl)CCCN(CCCl)CCCl", "values": [{"measurement": "T/C", "setting": "[1]; dose: 1.08 mg/kg/injection, vehicle: saline", "value": "105 % of control [survivor count not shown]"}, {"measurement": "T/C", "setting": "[1]; [4]", "value": "110 % of control [survivor count not shown]"}, {"measurement": "T/C", "setting": "[1]; [5]", "value": "110 % of control [survivor count not shown] (2×)"}, {"measurement": "T/C", "setting": "[1]; [3]", "value": "120 % of control [survivor count not shown]"}, {"measurement": "T/C", "setting": "[2]; [3]", "value": "126 % of control [survivor count not shown]"}, {"measurement": "T/C", "setting": "[2]; [6]", "value": "130 [survivor count not shown] and 136 % of control [survivor count not shown]"}]}, {"smiles": "Cc1cc2nc(CN(CCCl)CCCl)[nH]c2cc1C", "values": [{"measurement": "T/C", "setting": "[1]; dose: 14.0 mg/kg/injection, vehicle: methylcellulose (MC)", "value": "100 % of control [survivor count not shown]"}, {"measurement": "T/C", "setting": "[1]; dose: 23.0 mg/kg/injection, vehicle: methylcellulose (MC)", "value": "100 % of control [survivor count not shown]"}, {"measurement": "T/C", "setting": "[1]; dose: 65.0 mg/kg/injection, vehicle: methylcellulose (MC)", "value": "155 % of control [survivor count not shown]"}, {"measurement": "T/C", "setting": "[1]; dose: 108.0 mg/kg/injection, vehicle: methylcellulose (MC)", "value": "155 % of control [survivor count not shown]"}, {"measurement": "T/C", "setting": "[2]; dose: 39.0 mg/kg/injection, vehicle: methylcellulose (MC)", "value": "133 % of control [survivor count not shown]"}]}]}
